# Measured values published in PubChem BioAssay AID488789 (Broad Institute, 2010).
# Chains of the proteins cited; added tags and fusions are not shown.
# UniProt P00761, whole entry, looked up: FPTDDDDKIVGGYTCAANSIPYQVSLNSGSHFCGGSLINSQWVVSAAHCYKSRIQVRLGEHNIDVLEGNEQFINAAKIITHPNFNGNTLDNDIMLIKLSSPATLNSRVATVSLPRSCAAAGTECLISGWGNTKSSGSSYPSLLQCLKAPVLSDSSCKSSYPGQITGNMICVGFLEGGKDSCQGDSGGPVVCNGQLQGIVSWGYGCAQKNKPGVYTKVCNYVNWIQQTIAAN
# This list was built around the results that the source calls inconclusive (neither active nor inactive); the mix of calls is not that of the screen. Calls of active or inactive are those of the source.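 The calls were made as follows: active = samples whose fitted half-maximal inhibition concentration is no more than ten times the top valid dose tested; inconclusive = flat response between -70 and -30, or invalid curve fit; inactive = flat within 30 of zero, potency above limit, or signal rising.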
# Target: Trypsin (Sus scrofa) (UniProt P00761)
# Test: porcine trypsin inhibitors, dose response, selectivity assay for Rce1 protease inhibitor project, biochemical, quenched peptide fluorescence, cherry-pick (AID 488789);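 also: more negative means stronger trypsin inhibition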
# Settings: quenched peptide cleavage fluorescence; at 10 µM (top of the series)
row,Structure (SMILES),"activity change, negative = inhibition"
1,Cc1nc(N2CCCCC2C)c2c(C)c(C(=O)Nc3ccccc3C(F)(F)F)sc2n1 (stereo unspecified),inconclusive: -172%
2,CN1c2ccccc2-c2nc3ccccc3n2C1c1ccncc1 (stereo unspecified),inconclusive: -152%
3,COc1cccc2sc3ccc(C#CC4(O)CCCCC4)cc3c(=O)c12,inactive: 6.34%
4,COc1cc2c(cc1OC)C(C)N(C(=O)c1cc3c(=O)oc4ccc(C)cc4c3s1)CC2 (stereo unspecified),inconclusive: 7.31%
5,Cc1nn(CCC(=O)O)c2nc(-c3cccnc3)cc(C(F)(F)F)c12,inactive: 9.33%
6,O=C1CCCC(O)=C1N=Nc1ccc2ncsc2c1,inactive: 3.04%
7,C=CCn1c(N2CCCCCC2)nc2c1c(=O)n(C)c(=O)n2C,inconclusive: 4.13%
8,Cc1cc(C)nc(SCc2cn3c(C)cc(C)nc3n2)n1,inconclusive: -5.06%
9,Cc1cc(C(=O)N/N=C/c2c3ccccc3cc3ccccc23)n[nH]1,inactive: 9.63%
10,CCCCOc1ccc(C(=O)Nn2c(-c3cccs3)nc3ccccc3c2=O)cc1,inconclusive: -51.1%
11,C/C(Cl)=C\Cn1c(O)c(N=NC(N)=S)c2cc(Br)ccc21,inactive: 4.97%
12,O=C(Nc1cc(S(=O)(=O)N2CCCCC2)ccc1Cl)c1ccccc1NS(=O)(=O)c1ccc(F)cc1,inconclusive: 5.61%
13,CC1=C(C(=O)N2CCOCC2)C(c2ccccc2F)C2=C(CC(C)(C)CC2=O)N1 (stereo unspecified),inconclusive: -16%
14,C/C(=N\NC(=O)c1ccc(Br)cc1)c1cccc(NC(=O)c2cccnc2)c1,inconclusive: 6.49%
15,O=C(OC[C@@H]1CCCN2CCCC[C@H]12)c1cc2ccccc2oc1=O,inconclusive: -9.82%
16,CCCC(=O)N1CCN(c2ccc(NC(=O)c3cc4ccccc4o3)cc2Cl)CC1,inactive: -6.19%

row,Structure (SMILES),"activity change, negative = inhibition"
1,CCOc1ccc(NC(=O)CCSc2ccc(C)cc2)cc1,inactive: 4.59%
2,C=C(C)C1(O)OC(=O)C=C1OC (stereo unspecified),inactive: 12.6%
3,C[C@@]12CCC=C[C@H]1[C@H](c1ccc(/C=C/c3ccccc3)cc1F)N(Cc1ccccc1)C2=O,inactive: -6.03%
4,CC1(c2nnc(-c3cccc(Cl)c3)o2)CC(c2cccc(F)c2)=NO1 (stereo unspecified),inactive: 5.97%
5,O=C(Nc1cc(Cl)cc(Cl)c1)c1coc(=O)c(Br)c1,inactive: 3.02%
6,C=CCc1cccc(/C=N/NC(=O)COc2ccc(-n3cnnn3)cc2)c1O,inconclusive: -9.11%
7,COc1ccc(S(=O)(=O)N(CC(=O)N2CCCC2)Cc2ccccc2)cc1,inactive: 2.3%
8,COc1cc(-c2nc3ccccn3c2/N=C/c2cc(OC)c(OC)c(OC)c2)ccc1O,inconclusive: -2.13%
9,O=C(O)CNc1ccccc1C(=O)O,inconclusive: -59.9%
10,CN1c2ccc(C=O)c3c(C=O)ccc(c23)N(C)C1(C)C,inactive: 7.96%
11,COc1ccc(-c2ccc3oc(-c4ccc(OC)cc4)c(-c4ccc(OC)cc4)c3c2)cc1,inconclusive: -180%
12,C/C(CC(=O)NCc1ccco1)=N\NC(=O)c1ccc([N+](=O)[O-])cc1Cl,inactive: 12.5%
13,COc1ccc(-n2nc(C(=O)NCC(=O)N(C)Cc3ccccc3)c3ccccc3c2=O)cc1,inconclusive: -27.4%
14,CCOC(=O)c1nnn2c1nc(N1CCOCC1)c1ccccc12,inconclusive: -4.72%
15,O=c1[nH]c(Nc2ccccn2)cc2ccccc12,inconclusive: 6.43%

# No new results follow: 2 of the compounds above.
row,Structure (SMILES),"activity change, negative = inhibition"
6,C=CCc1cccc(/C=N/NC(=O)COc2ccc(-n3cnnn3)cc2)c1O,inconclusive: -9.11%
7,COc1ccc(S(=O)(=O)N(CC(=O)N2CCCC2)Cc2ccccc2)cc1,inactive: 2.3%
